Measured values as given in patent US20250368962A1, “THREE-DIMENSIONAL HEPATIC TISSUE AND METHOD OF MANUFACTURING THE SAME” (TOPPAN HOLDINGS INC., priority 2023, published 2025).

Test system: three-dimensional hepatic tissue consisting only of human hepatocytes (PXB cells)
Assay: ATP assay (CellTiter Glo 3D) viability after exposure to hepatotoxicity-inducing compounds, Test Example 6 Condition 1
Format: cell-based
Settings: Condition 1 (present tissue) versus Condition 2 (spheroid); IC50 half or less in Condition 1
Experimental: The resulting mixture was centrifuged at room temperature at 400×g for 2 minutes, the supernatant was removed, and the cells were resuspended in an HCM (product number “CC-3198”, manufactured by Lonza) containing 10 U/mL thrombin (product number “R4648”, manufactured by Sigma-Aldrich) and 1 v/v % endothelial cell growth supplement (ECGS) (product number “1052”, manufactured by Sciencell) to a cell density of 1.95×10^4 cells/2 μL to obtain a cell suspension.
2 μL of an HCM containing 5 mg/mL fibrinogen and 1 v/v % ECGS was added to a 48-well microplate (product number “3830-048”, manufactured by AGC Techno Glass) to form a droplet. The cell suspension was added to the interior of each droplet, and the 48-well microplate was then left to stand in an incubator for 40 minutes to form a fibrin gel in which the human hepatocytes were embedded. 0.5 mL of HCM containing 1 v/v % ECGS was added to each well in which the fibrin gel had been formed, and the cells were cultured under the conditions of 37° C. and 5% CO2. After the start of the culture, the medium was changed every two days.

| Structure (SMILES) | Compounds with 2-fold or greater difference in IC50 value |
| --- | --- |
| CS(=O)(=O)CCNCc1ccc(-c2ccc3ncnc(Nc4ccc(OCc5cccc(F)c5)c(Cl)c4)c3c2)o1 [Lapatinib] | Yes |
| CS(=O)(=O)Nc1ccc([N+](=O)[O-])cc1Oc1ccccc1 [Nimesulide] | Yes |
